Laboratory results taken from patent US20220135701A1 (Genentech, published 2022).
No constants are given. Whether binding was seen depends on the method and setting. Some entries that bind do so weakly or less than the wild type.

Key:
human MerTK [1] = biological target: T1, human MerTK (human, UniProt Q12866 26-499); assay: SPR BIAcore T200
T1 construct: also called HuMER
T1 sequence: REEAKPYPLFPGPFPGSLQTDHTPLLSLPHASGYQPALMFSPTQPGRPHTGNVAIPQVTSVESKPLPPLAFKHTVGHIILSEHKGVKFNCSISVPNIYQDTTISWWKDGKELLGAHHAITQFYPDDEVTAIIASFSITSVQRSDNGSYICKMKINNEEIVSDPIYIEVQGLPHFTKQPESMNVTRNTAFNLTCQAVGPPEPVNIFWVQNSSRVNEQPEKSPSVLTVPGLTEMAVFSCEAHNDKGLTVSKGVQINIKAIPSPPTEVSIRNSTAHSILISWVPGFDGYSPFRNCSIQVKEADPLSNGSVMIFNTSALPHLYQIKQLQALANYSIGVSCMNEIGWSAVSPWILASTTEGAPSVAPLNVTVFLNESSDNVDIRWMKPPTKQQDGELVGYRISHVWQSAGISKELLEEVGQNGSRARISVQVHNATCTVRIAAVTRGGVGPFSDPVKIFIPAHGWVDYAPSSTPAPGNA

human MerTK [2] = biological target: T1, human MerTK; assay: SPR classic sandwich format: h13B4.v16 (2 ug/mL) captured by goat anti-human Fab chip, HuMerTK 50 nM injected
rat MerTK = biological target: T2, rat MerTK (rat, UniProt P57097 23-496, limits assumed); assay: SPR BIAcore T200
T2 construct: Soluble analyte in SPR
T2 sequence (looked up): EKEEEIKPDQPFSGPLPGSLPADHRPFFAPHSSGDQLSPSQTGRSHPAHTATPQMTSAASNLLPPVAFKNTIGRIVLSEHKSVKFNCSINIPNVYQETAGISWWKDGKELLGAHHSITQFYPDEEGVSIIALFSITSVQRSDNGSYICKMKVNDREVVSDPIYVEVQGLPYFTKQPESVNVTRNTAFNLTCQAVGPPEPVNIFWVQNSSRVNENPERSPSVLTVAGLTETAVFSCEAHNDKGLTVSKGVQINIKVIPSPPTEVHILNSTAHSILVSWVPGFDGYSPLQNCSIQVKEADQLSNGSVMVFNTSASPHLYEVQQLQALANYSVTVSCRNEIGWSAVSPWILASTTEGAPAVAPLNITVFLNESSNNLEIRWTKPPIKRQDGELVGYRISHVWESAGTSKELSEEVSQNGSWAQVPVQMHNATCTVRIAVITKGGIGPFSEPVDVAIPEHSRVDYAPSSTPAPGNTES

[3] = biological target: cynomolgus monkey MerTK (cynomolgus monkey); assay: SPR BIAcore T200
mouse MerTK = biological target: T3, mouse MerTK (mouse, UniProt Q60805 23-496); assay: SPR BIAcore T200
T3 construct: also called MuMER
T3 sequence (looked up): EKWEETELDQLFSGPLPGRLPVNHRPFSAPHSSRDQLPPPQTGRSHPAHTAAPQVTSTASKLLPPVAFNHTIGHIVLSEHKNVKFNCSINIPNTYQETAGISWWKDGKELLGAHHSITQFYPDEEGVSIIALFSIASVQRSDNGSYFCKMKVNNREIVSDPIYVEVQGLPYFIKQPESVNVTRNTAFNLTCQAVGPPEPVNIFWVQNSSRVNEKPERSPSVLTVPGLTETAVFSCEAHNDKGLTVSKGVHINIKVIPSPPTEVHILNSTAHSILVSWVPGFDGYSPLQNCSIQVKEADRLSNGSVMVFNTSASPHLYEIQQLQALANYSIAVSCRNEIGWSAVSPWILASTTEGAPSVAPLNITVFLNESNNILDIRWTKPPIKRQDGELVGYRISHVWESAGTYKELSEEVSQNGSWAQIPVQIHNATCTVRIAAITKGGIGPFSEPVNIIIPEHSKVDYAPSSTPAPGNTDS

Measured: binding

B1: h13B4.v16 (antibody, V domains shown)
VH: EVQLVESGEGLVQPGGSLRLSCAASGFSLSSYAMGWVRQAPGKGLEYVGIINSYGNTYYANWAKGRFTISRDNSKNTVYLQMGSLRAEDMAVYYCARDPGVSSNLWGRGTLVTVSS
VL: DIQMTQSPSTLSASVGDRVTITCQASQNIYSGLAWYQQKPGKAPKLLIYGASKLASGVPSRFSGSGSGTEFTLTISSLQPDDFATYYCQATYYSSNSVAFGGGTKVEIK
notes: Humanized, human IgG1; also called 13B4 Fully Humanized; 13B4 Humanized polished mAb
binds: human MerTK [1] | human MerTK [2]

B2: h10C3.v14 (antibody, V domains shown)
VH: EVQLVESGGGLVQPGGSLRLSCAASGFSLSGYTMGWVRQAPGKGLEYIGVISSGGTTYYTNWAKGRFTISKDNSKNTLYLQMGSLRAEDMAVYYCARVAFTAYGGGGFPTLHRLDLWGQGTLVTVSS
VL: DQVLTQSPDSLAVSLGERATINCQSSESVYNNDYLAWYQQKPGQPPKLLIYSASTLASGVPDRFSGSGSGTDFTLTISSLQAEDVAVYYCAGGYLGNNVFGGGTKVEIK
notes: Humanized, human IgG1; also called 10C3 Humanized polished mAb
not listed: human MerTK [2]
binds: all other assays above

B3: h9E3.FN.v1 (antibody, V domains shown)
VH: EQQLVESGGGLIQPGGSLRLSCAVSGFSLSSNAMSWVRQAPGKGLEWIGIISSSGSTYSASWAKGRFTISKDSSKNTMYLQMNSLRAEDTAVYFCARVGFFVGYGAYDYGIIHRLDLWGQGTLVTVSS
VL: DAQLTQSPSTLSASVGDRVTITCQSSKSIYNNNWLSWYQQKPGKPPKLLIYDASDLASGVPSRFSGSGSGTEFTLTISSLQPDDFATYYCAGGYSGDSDYAFGGGTKVEIK
notes: also called h9E3.FN.V1 (Parent); 9E3.FN Humanized mAb V1
not listed: human MerTK [2]
binds: all other assays above

B4: h9E3.FN.v16 (antibody, V domains shown)
VH: EVQLVESGGGLIQPGGSLRLSCAASGFSLSSNAMSWVRQAPGKGLEWVSIISSSGSTYSASWAKGRFTISKDNSKNTLYLQMNSLRAEDTAVYYCARVGFFVGYGAYDYGIIHRLDLWGQGTLVTVSS
VL: DIQLTQSPSTLSASVGDRVTITCQSSKSIYNNNWLSWYQQKPGKPPKLLIYDASDLASGVPSRFSGSGSGTEFTLTISSLQPDDFATYYCAGGYSGDSDYAFGGGTKVEIK
notes: Humanized, human IgG1; also called 9E3.FN Humanized polished mAb
not listed: human MerTK [2]
binds: all other assays above
